These are yes or no findings as the source states them, for the method shown. Binding seen in cells or lysates may run through a third protein. A yes stands for co-enrichment or nearness to the bait. Other partners may have been found. Sequences can lack the tags named with a protein.
Key:
[1] = molecular target: T1, EMF1-3XFLAG (in emf1) (Arabidopsis) (UniProt Q9LYD9); test: affinity purification with mass spectrometry; coIP-MS with EMF1-3XFLAG as bait from Arabidopsis plants (EMF1-3XFLAG emf1), control Col-0; two independent experiments; procedure in SI Appendix
T1 sequence: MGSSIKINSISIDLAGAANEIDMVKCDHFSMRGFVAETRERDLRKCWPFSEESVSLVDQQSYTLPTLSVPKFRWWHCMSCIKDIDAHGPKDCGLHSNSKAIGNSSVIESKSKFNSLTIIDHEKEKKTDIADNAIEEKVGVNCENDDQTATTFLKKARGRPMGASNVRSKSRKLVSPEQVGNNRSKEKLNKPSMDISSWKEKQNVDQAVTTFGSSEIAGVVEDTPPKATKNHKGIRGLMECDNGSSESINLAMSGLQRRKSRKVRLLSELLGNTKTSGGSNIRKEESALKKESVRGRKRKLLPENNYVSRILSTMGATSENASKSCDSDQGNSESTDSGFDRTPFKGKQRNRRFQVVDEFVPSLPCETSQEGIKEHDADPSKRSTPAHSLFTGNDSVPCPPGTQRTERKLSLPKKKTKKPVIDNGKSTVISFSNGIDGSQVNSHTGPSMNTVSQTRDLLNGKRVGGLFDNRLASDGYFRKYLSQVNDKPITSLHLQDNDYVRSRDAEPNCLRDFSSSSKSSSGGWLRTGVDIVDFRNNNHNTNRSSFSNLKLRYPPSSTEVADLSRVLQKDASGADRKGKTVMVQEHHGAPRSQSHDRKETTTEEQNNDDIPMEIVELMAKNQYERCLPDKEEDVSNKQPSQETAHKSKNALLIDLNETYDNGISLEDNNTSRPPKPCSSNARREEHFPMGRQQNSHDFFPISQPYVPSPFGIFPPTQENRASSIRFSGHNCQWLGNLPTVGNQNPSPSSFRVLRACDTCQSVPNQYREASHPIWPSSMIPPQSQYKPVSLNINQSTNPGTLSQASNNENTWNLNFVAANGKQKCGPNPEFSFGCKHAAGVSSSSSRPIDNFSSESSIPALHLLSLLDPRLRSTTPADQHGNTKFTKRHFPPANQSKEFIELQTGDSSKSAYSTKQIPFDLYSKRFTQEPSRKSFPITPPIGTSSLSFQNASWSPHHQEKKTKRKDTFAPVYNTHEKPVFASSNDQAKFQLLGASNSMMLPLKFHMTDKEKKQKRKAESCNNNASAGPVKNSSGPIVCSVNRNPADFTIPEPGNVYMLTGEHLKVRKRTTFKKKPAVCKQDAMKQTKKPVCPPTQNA

[2] = molecular target: T2, GFP-CLF (35S:GFP-CLF in clf-50) (Arabidopsis) (UniProt P93831); test: affinity purification with mass spectrometry; coIP-MS with GFP-tagged baits from Arabidopsis plants (gICU11-GFP icu11-3; 35S:GFP-CLF clf-50; gSWN-GFP), control 35S::GFP; two independent experiments; procedure in SI Appendix
T2 sequence: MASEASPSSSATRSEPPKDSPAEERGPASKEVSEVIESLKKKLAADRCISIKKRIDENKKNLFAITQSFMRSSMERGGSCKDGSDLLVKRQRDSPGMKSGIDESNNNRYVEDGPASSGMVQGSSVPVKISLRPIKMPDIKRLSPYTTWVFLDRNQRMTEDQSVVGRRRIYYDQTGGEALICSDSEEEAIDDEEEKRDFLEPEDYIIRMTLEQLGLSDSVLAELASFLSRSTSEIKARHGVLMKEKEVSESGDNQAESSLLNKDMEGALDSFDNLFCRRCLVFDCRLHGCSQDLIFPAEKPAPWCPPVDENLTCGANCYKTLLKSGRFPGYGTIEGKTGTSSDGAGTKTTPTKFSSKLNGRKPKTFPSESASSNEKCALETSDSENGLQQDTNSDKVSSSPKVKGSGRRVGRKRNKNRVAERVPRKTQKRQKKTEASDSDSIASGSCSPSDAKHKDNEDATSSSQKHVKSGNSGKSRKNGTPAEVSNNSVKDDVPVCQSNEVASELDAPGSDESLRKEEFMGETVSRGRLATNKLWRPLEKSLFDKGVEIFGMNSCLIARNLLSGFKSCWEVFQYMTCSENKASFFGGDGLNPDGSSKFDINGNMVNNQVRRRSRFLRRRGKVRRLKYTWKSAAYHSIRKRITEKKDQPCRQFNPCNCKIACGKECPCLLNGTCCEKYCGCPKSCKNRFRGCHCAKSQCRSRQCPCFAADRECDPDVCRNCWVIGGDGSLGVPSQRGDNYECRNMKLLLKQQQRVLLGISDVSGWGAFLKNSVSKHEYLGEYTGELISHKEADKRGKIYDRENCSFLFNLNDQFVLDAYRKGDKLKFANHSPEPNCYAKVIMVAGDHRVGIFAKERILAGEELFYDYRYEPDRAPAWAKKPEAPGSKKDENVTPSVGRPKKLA

[3] = molecular target: T3, SWN-GFP (gSWN-GFP) (Arabidopsis) (UniProt Q9ZSM8); test: as above
T3 sequence: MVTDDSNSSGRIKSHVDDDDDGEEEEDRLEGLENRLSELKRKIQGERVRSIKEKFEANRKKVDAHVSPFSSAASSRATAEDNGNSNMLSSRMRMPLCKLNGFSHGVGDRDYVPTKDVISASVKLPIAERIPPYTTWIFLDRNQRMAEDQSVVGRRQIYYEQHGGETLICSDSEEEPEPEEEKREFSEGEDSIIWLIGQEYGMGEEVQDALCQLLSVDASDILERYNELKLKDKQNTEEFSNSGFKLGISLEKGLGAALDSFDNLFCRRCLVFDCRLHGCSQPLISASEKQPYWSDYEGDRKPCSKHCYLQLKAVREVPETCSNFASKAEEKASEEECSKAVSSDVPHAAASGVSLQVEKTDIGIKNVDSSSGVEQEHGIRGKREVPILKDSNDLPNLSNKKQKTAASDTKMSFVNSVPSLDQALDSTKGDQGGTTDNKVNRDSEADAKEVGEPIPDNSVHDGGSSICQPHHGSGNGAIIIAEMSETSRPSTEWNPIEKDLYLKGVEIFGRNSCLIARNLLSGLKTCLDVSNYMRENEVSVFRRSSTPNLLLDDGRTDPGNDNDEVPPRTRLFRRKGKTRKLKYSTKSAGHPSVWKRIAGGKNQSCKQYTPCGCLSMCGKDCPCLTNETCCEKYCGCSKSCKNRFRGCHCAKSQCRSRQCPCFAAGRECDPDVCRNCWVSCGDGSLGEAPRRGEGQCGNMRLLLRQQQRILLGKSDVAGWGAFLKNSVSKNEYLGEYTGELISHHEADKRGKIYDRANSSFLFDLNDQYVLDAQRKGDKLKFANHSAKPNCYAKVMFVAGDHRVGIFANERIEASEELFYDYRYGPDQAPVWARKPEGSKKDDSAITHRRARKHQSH

[4] = molecular target: T4, ICU11-eGFP (gICU11-GFP in icu11-3) (Arabidopsis) (UniProt Q3ED68); test: as above
T4 sequence: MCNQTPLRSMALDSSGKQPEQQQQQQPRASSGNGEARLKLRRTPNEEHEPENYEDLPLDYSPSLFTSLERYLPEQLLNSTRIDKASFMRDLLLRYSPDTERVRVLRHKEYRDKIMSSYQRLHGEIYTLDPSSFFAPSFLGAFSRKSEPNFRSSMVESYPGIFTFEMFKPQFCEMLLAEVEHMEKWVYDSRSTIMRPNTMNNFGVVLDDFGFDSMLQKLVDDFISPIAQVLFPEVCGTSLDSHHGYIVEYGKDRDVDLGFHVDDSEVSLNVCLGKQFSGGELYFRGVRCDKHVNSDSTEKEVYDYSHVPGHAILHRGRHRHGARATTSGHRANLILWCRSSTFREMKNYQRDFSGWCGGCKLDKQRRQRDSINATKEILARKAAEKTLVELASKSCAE

[5] = molecular target: T5, ICU11-3xHA (gICU11-HA in icu11-3) (Arabidopsis) (UniProt Q3ED68); test: affinity purification with mass spectrometry; coIP-MS with 3xHA-tagged ICU11 as bait from Arabidopsis plants (gICU11-HA icu11-3), control icu11-3; two independent experiments; procedure in SI Appendix
T5 sequence: T4 sequence

Measured: binding

B1: LIKE HETEROCHROMATIN PROTEIN1 (protein, UniProt Q946J8 1-445)
chain: MKGASGAVKKKPQVLNEAGEAETAVETVGESRKISGDGGFGSDDGGGGGGGGSGESILREIGDDRPTEDGDEEEEEDEDEDDGGDEEDEEGEGEGGQEERPKLDEGFYEIEAIRRKRVRKGKVQYLIKWRGWPETANTWEPLENLQSIADVIDAFEGSLKPGKPGRKRKRKYAGPHSQMKKKQRLTSTSHDATEKSDSSTSLNNSSLPDIPDPLDLSGSSLLNRDVEAKNAYVSNQVEANSGSVGMARQVRLIDNEKEYDPTLNELRGPVNNSNGAGCSQGGGIGSEGDNVRPNGLLKVYPKELDKNSRFIGAKRRKSGSVKRFKQDGSTSNNHTAPTDQNLTPDLTTLDSFGRIARMGNEYPGVMENCNLSQKTKIEELDITKILKPMSFTASVSDNVQEVLVTFLALRSDGKEALVDNRFLKAHNPHLLIEFYEQHLKYNRTP
binds: [1] | [2] | [3] | [4] | [5]

B2: INCURVATA11 (ICU11), endogenous (protein, UniProt Q3ED68 1-397)
chain: T4 sequence
binds: [1] | [2] | [3]

B3: TELOMERE-REPEAT-BINDING (TRB) 3 (protein, UniProt Q9M2X3 1-295)
chain: MGAPKLKWTPEEETALKAGVLKHGTGKWRTILSDPVYSTILKSRSNVDLKDKWRNISVTALWGSRKKAKLALKRTPLSGSRQDDNATAITIVSLANGDVGGQQIDAPSPPAGSCEPPRPSTSVDKIILEAITSLKRPFGPDGKSILMYIEENFKMQPDMKRLVTSRLKYLTNVGTLVKKKHKYRISQNYMAEGEGQRSPQLLLEGNKENTPKPEENGVKNLTKSQVGGEVMIMGMTEKEAAAAAARAVAEAEFAMAEAEEAAREADKAEAEAEAAHIFAKAAMKAVKYRMHSQTR
binds: [1] | [2] | [3] | [4] | [5]

B4: TELOMERE-REPEAT-BINDING (TRB) 2 (protein, UniProt Q9FJW5 1-299)
chain: MGAPKQKWTPEEEAALKAGVLKHGTGKWRTILSDTEFSLILKSRSNVDLKDKWRNISVTALWGSRKKAKLALKRTPPGTKQDDNNTALTIVALTNDDERAKPTSPGGSGGGSPRTCASKRSITSLDKIIFEAITNLRELRGSDRTSIFLYIEENFKTPPNMKRHVAVRLKHLSSNGTLVKIKHKYRFSSNFIPAGARQKAPQLFLEGNNKKDPTKPEENGANSLTKFRVDGELYMIKGMTAQEAAEAAARAVAEAEFAITEAEQAAKEAERAEAEAEAAQIFAKAAMKALKFRIRNHPW
binds: [1] | [2] | [3] | [4] | [5]
